Experiment [1] deals with Pxd1 (SPCC1322.02) used as bait for AP-MS (S. pombe) (UniProt O94542). In words: affinity purification with mass spectrometry; tagged bait (Saw1 with a YFP-FLAG-His6 tag, purified using anti-YFP beads; Pxd1 as bait) from fission yeast, co-purified proteins analysed by mass spectrometry.
The target of experiment [2] is Saw1 tagged with a YFP-FLAG-His6 (YFH) tag (S. pombe) (UniProt Q9UUA8). The description is as above.

Protein sequences, listed by entry. Tags and fused reporters are not part of them. Lines headed by an entry give the natural chain unless they say otherwise; changes in a name come on top.
UniProt O94542: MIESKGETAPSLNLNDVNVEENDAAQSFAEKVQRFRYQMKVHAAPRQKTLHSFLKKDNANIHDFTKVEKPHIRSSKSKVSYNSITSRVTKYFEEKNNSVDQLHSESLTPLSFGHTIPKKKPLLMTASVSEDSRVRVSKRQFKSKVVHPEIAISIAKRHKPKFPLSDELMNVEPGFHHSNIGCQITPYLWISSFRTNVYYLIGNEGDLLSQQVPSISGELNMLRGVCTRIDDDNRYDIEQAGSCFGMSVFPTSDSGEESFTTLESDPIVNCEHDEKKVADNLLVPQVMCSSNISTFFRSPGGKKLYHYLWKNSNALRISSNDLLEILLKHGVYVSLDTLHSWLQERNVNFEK
UniProt Q9UUA8: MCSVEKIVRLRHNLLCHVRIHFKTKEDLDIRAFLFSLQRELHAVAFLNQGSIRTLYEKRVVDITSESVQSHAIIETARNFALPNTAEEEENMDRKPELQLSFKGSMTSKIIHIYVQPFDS

Among the data in article PMC4159138, “Fission Yeast Pxd1 Promotes Proper DNA Repair by Activating Rad16^XPF and Inhibiting Dna2” (PLoS Biology, 2014) are binding values, retold here.

Results are given in words; binding and its absence hold for the method and conditions named. Binding seen in cells or lysates may run through a third protein. These calls come from enrichment with a bait or labelling near it, and not all partners need be listed. Tags and fused reporters may be left off the sequences shown.

B1: Cdc24, untagged, endogenous (protein, UniProt O75004 1-501)
chain: MDFPGLIKKIKEDLENRLVEKSKQPAFTDYWLINKTISLLKEYPSGFSYPILINEIELACSERNKLDNVFSSLEWLTKSDAVIYLEDQFHFHCYDYYYTPIPSLKLKDSEENTCEMILHSSFYLLFHEPFNILKGSTLRFSQSRIHQKWYLRKQIRFLPTTSFVPVLQYAASKSFVKSMVESTEHEFFQIRDITISKSDQGVKRITVELGRIISLDKKGAFLIDNNTNFIHFSGTYHDFPKLLDKQQYLLIPFWSTVWEGSTNWQDGMIGILVILSENDFEEKKCDSWQVGRLAAVNSNFLVLDNNGQRVKILYSNSQKHYFKDTYIGDLLCISPINHSSDNLSDYSCVSDTTTEILSNLENPLSSNFLRNDLCKFSNLFSGVSGHLKIQPLTLVITGFVANLTRQSDLNTSLVLPEVNPLTAKMEVIDCLRNSFWAALRPNCVSYFASMISGFKELFQKEMEFPIYLDLKSYKLGFHWCDIYVDSEHNCHIQKINSLPCE
For the molecule B1, the binding result in experiment [1] was “binds”.

B2: Swi10, untagged, endogenous (protein, UniProt Q06182 1-252)
chain: MSDIDDEEFEQLAVSALEEVEKKAGFAQQPTPQKVSRVTAHSILVNPRQKGNPLLPHVRNVPWEYTDIVPDFVMGTGICSLFLSLKYHHLHPEYIYSRISKLGKSYNLRILLILVDVENHQASIQELVKTSIVNQYTLILAWSSEEAARYLETYKAYENMSPALIMEKPSTDYLSQVQSFLTSIRGINKSDSLSLLSKFGSLERALVASRDELEQLEGWGPTKVNRFLEAVQQPFMSHSTIKRPEAINLKQT
Regarding B2, the binding result in experiment [1] and in experiment [2] was “binds” in each case.

B3: Rad16, untagged, endogenous (protein, UniProt P36617 1-877)
chain: METKVHLPLAYQQQVFNELIEEDGLCVIAPGLSLLQIAANVLSYFAVPGSLLLLVGANVDDIELIQHEMESHLEKKLITVNTETMSVDKREKSYLEGGIFAITSRILVMDLLTKIIPTEKITGIVLLHADRVVSTGTVAFIMRLYRETNKTGFIKAFSDDPEQFLMGINALSHCLRCLFLRHVFIYPRFHVVVAESLEKSPANVVELNVNLSDSQKTIQSCLLTCIESTMRELRRLNSAYLDMEDWNIESALHRSFDVIVRRQLDSVWHRVSPKTKQLVGDLSTLKFLLSALVCYDCVSFLKLLDTLVLSVNVSSYPSNAQPSPWLMLDAANKMIRVARDRVYKESEGPNMDAIPILEEQPKWSVLQDVLNEVCHETMLADTDAETSNNSIMIMCADERTCLQLRDYLSTVTYDNKDSLKNMNSKLVDYFQWREQYRKMSKSIKKPEPSKEREASNTTSRKGVPPSKRRRVRGGNNATSRTTSDNTDANDSFSRDLRLEKILLSHLSKRYEPEVGNDAFEVIDDFNSIYIYSYNGERDELVLNNLRPRYVIMFDSDPNFIRRVEVYKATYPKRSLRVYFMYYGGSIEEQKYLFSVRREKDSFSRLIKERSNMAIVLTADSERFESQESKFLRNVNTRIAGGGQLSITNEKPRVIVDLREFRSSLPSILHGNNFSVIPCQLLVGDYILSPKICVERKSIRDLIQSLSNGRLYSQCEAMTEYYEIPVLLIEFEQHQSFTSPPFSDLSSEIGKNDVQSKLVLLTLSFPNLRIVWSSSAYVTSIIFQDLKAMEQEPDPASAASIGLEAGQDSTNTYNQAPLDLLMGLPYITMKNYRNVFYGGVKDIQEASETSERKWSELIGPEAGRRLYSFFRKQLKDYE
Regarding B3, the binding result in experiment [1] and in experiment [2] was “binds” each time.

B4: Dna2, untagged, endogenous (protein, UniProt Q9URU2 1-1397)
chain: MFNDQSKTTSSVKGICATTDNNHGNLKKTNSTPFRKNYLLNGRTKLKLENFAYNASTEISSPKISEKKHSSLPIKRKNTFNESSTSFSPFTKAHKEITDDLKPDKSFTRKSDLNSQDMPVCFQETSKDLCRSSSTQHLLDHQTTDSTIIDMKPVSTNSKSDVFTLYTDETVLLRRCASDNKPLINNNLSSSNVSENQSRSFGSYDEVKNQGNNLHKVPSLVSIIRNARSSEQSRIAANSSCLLKGSDTEIDEDDFALEAEDLAALDSLERQYSQLPNSTVTASAKDIEKTAKVNHVGGDLQSYCSATKASDATINEEPVNLALDKACNSLPDINSDFIDDWDDSCDGCTPGELCEFSSEYTVLEVHEDFIFHEGNHFRQLKLILEANDILHQLFLRGDWTETSIFVGDSIRVEATFDKDNTAIVDNDKGLIIIHPKILMSATAVASSFPCLRKAVISDRVGIYGPPTKAMVTGNILHDFFQHALYRGIDALENVDINLETSIKTYISDIYFADLSLDEIREELDARLPLLKSIVERYLISKKNDNNNESIHISRLLDIEESIWSPRFGLKGNIDATVEVVLTEKPESSSTLTLPLELKTGRYVDNISHFAQSLLYTLLISDRYGINTNQALLCYLENSTIKNLVASNSQLRGLIMTRNSLAQHNFRRSLPEMISNRKICDHCSLVSECLFFQKMSDKGVANSNGLTESWNEWMREVKDEDLEFYKKWEKLLNQEERLLLLKRGDVLTFDTEELEAYGKTLYPLYITKEDIVCLEIDDRVFHYKFAFLNDNGYPRNFLHSGFSVGERVFISDEHGHWSLAKGHIVHIQDSCIEVRTRHRLHIPWLKMPNFDFKKNQVFFGNYEDSKLSFIGSNHTRYRIDKDEFSSGIASIRGTLMSSVLPDAPLIIRDMIIRLKPPKFCNSALIDPEFLKCLNEDQITALKKCHAAEHYSLILGMPGTGKTTTISSLIRSLLAKKKKILLTSFTHLAVDNILIKLKGCDSTIVRLGSPHKIHPLVKEFCLTEGTTFDDLASLKHFYEDPQIVACSSLGVYHSIFNKRKFDYCIIDEASQIPLPICLGPLQLAEKFVLVGDHYQLPPLVKNSRTSKDGLSLSLFKLLSEKHPEAVTTLRLQYRMNEDINSLSSELIYGGNLVCGSKTISQKKLILPKAHLSDGLPDSSSSLHWVNKLINPSHSVIFFNTDDILGVESKTNNILENHTEAFLIEQAVSSFLERGVKQSSIGIISIYKSQVELLSKNLKSFTEIEINTVDRYQGRDKDIILISFVRSNSKNLVGELLRDWHRLNVALSRAKVKCIMFGSLSTLSSSNIVSHLLKLLEKNKWIFTLNENDIATKFDENSSPIKDCSQVATTNNAKVIIRKNQRFFNSDNLCEKAILPQLEF
For the molecule B4, the binding result in experiment [1] is “binds”.
